This is one part of the list. These are further read-outs of the screen, such as a control signal, another cell line or another target. No call is given for them. The list favours compounds with an active or inconclusive main result. Potencies come from curve fits of mixed quality, noted in brackets.

The values that follow come from PubChem BioAssay AID493014 (National Center for Advancing Translational Sciences (NCATS), 2011).

The nature of the assay: qHTS Assay to Find Inhibitors of Chronic Active B-Cell Receptor Signaling. To be noted: ABC-DLBCL IkBa-CBG/CBR reporter, luminescence ratio (green luciferase fused to IkBa over red control in TMD8 lymphoma cells), 4 h. The procedure, abridged: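 Doxycycline induced both beetle luciferases in TMD8 lymphoma cells; IKK-driven degradation limits the IkappaBalpha-fused green signal, while red luminescence normalises for cell number and nonspecific effects. Compounds tested up to 46 uM, 4 hrs.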
In general terms: Quantitative high-throughput screening tests each substance at several concentrations.

Where [1] appears, read: measured here: CBR red luminescence, cell number.
The mark [2] stands for this setting: measured here: IkBa-CBG green luminescence.

One may read the AC50 as the midpoint of the concentration-response curve, whichever way the signal moves. On to `COC(C(=O)NNC(=O)Cc1ccc(Cl)cc1)c1ccccc1` (stereo not drawn), for which the AC50 under setting [1] is 11.2 µM [falling, partial curve, poor fit].

With `CCCn1c(SCC(=O)Nc2ccccc2Oc2ccccc2)n[nH]c1=O`, the AC50 under setting [1] is 20.6 µM [falling, single point].

`O=C(C1CCN(C2CCN(Cc3ccc4cc(F)ccc4n3)CC2)CC1)N1CCCC1`: the AC50 under setting [1] is 35.5 µM [falling, single point].

With `CCCOc1ccc(/C=N/NC(=O)c2ccc3c(c2)OCO3)c(OCCC)c1`, the AC50 under setting [1] was 5.62 µM [falling, full curve].

Take `CCCC(=O)Nc1cccc(NC(=O)c2cccc([N+](=O)[O-])c2C)c1`: the AC50 under setting [1] is 4.61 µM [rising, single point].

`COC(=O)CSc1nccc(-c2ccc(F)cc2)c1C#N`: the AC50 under setting [1] was 10 µM [rising, partial curve, poor fit].

Turning to `CC(=O)N1c2ccccc2C(=O)C1N(C)c1ccc(C)cc1` (stereo not drawn), under setting [1], the AC50 is 2.24 µM [rising, partial curve, poor fit].

Take `Cc1ccccc1C(=O)NNC(=O)c1ccc(Br)cc1`: under setting [1], the half-maximal activity concentration (AC50) is 3.98 µM [falling, full curve].

`CC(=O)Nc1ccc(NC(=O)C(C)Oc2ccc(C)nc2[N+](=O)[O-])cc1` (stereo not drawn): the AC50 under setting [1] was 18.4 µM [rising, single point].

`Cc1cc(C(=O)NNC(=O)/C=C/c2ccccc2Cl)c(C)o1`: the concentration at half-maximal activity (AC50) under setting [1] was 3.16 µM [falling, full curve].

As to `COC(=O)c1ccc(Nc2cc(C)nc3nc(C)nn23)cc1`, the AC50 under setting [1] was 5.17 µM [falling, partial curve, poor fit].

With `O=C(NCc1ccc2c(c1)OCO2)Nc1ccc2ccccc2c1`, the AC50 under setting [1] is 10 µM [falling, partial curve, poor fit].

For the molecule `O=C(NC1CCCCC1)c1ccc(CNc2ccccc2)o1`, under setting [1], the AC50 was 4.47 µM [falling, partial curve].

On to `N#CCSc1ccccc1NC(=O)COC(=O)Cc1c[nH]c2ccccc12`, for which the AC50 under setting [1] was 0.116 µM [falling, full curve, poor fit].

As for `CCOc1ccc(NC(=O)CSc2nc(C)cc(C)n2)cc1`, the AC50 under setting [1] was 14.6 µM [rising, partial curve, poor fit].

With `Cc1cc(/C=C2\Sc3ccccc3N2C)cc(C)[n+]1CC1CCCO1` (stereo not drawn), under setting [1], the AC50 is 3.55 µM [falling, full curve, poor fit].

For the molecule `CCOc1ccc(-n2c(SCC(=O)Nc3ccccc3C)n[nH]c2=O)cc1`, the AC50 under setting [1] was 25.1 µM [falling, single point].

For `CCCCCC(=O)N=Nc1c(O)[nH]c2ccc([N+](=O)[O-])cc12`, under setting [1], the AC50 was 7.31 µM [rising, partial curve, poor fit].

In the case of `Cc1c(/C=N/N2C(=O)C3C4C=CC(C4)C3C2=O)c2ccccc2n1C` (stereo not drawn), under setting [1], the AC50 was 4.61 µM [rising, full curve, poor fit].

`CCCCn1c(N)c(N(CC(C)C)C(=O)c2cc(-c3ccc(F)cc3)nc3ccccc23)c(=O)[nH]c1=O`: under setting [1], the AC50 is 29.1 µM [rising, single point].

Consider `CC1OC(Oc2c(-c3cc(O)c(O)c(O)c3)oc3cc(O)cc(O)c3c2=O)C(O)C(O)C1O` (stereo not drawn), for which, under setting [1], the AC50 is 35.5 µM [rising, single point].

For `C=CCOc1c(Cl)cc(C(=S)N2CCCC2)cc1OCC`, the half-maximal activity concentration (AC50) is, setting by setting: under setting [1], 28.2 µM [rising, single point]; under setting [2], 35.5 µM [falling, partial curve, poor fit].

On to `Oc1c(C=Nc2ccc(Cl)cn2)sc2ccccc12`, for which, under setting [1], the half-maximal activity concentration (AC50) was 5.62 µM [rising, single point].

On to `Cc1ccc(S(=O)(=O)N(CC(=O)N2CCN(c3ccccc3F)CC2)C2CCCCC2)cc1`, for which the AC50 under setting [1] is 2.31 µM [falling, partial curve, poor fit].

As for `COc1cc(/C=C/c2ccc3cccc(O)c3n2)cc(Br)c1OC`, the AC50 reads like this: under setting [1], 0.1 µM [rising, full curve, poor fit]; under setting [2], 3.16 µM [falling, full curve, poor fit].

On to `CCOC(=O)c1ccc(NC(=O)N2CCN(CCc3ccccc3)CC2)cc1`, for which the AC50 under setting [1] was 29.1 µM [rising, single point].

In the case of `Cc1ccc(-c2nnc(CSc3nnc(COc4ccccc4)n3-c3ccccc3)o2)cc1`, the AC50 under setting [1] was 22.4 µM [falling, single point].

As to `Cc1ccc(C(=O)CSc2cnc3ccccc3n2)cc1C`, under setting [1], the AC50 was 5.17 µM [falling, full curve].

On to `O=C(Nc1ccc(N2CCCC2)c(Cl)c1)c1ccc([N+](=O)[O-])o1`, for which the AC50 under setting [1] is 0.794 µM [rising, full curve, poor fit].

As for `O=C(C[C@H]1C/C=C\CC[C@@H](Cc2ccc(F)cc2)C(=O)OCCNC1=O)NCCO`, under setting [1], the AC50 was 3.26 µM [falling, single point].

Regarding `O=C(O)c1ccc2[nH]c3c(c2c1)CCCC3`, the AC50 is, setting by setting: under setting [1], 28.2 µM [falling, single point]; under setting [2], 0.891 µM [rising, full curve, poor fit].

For the molecule `NS(=O)(=O)c1ccc(NC(=O)CN2CCN(Cc3ccccc3)CC2)cc1`, the half-maximal activity concentration (AC50) was 20.6 µM [falling, partial curve] under setting [1] and 18.4 µM [rising, partial curve, poor fit] under setting [2].

Turning to `CC(=O)C1=C(C)NC(SCc2ccc(C#N)cc2)=C(C#N)C1c1ccco1` (stereo not drawn), under setting [1], the AC50 is 0.184 µM [rising, full curve, poor fit].

Take `Cc1cc(N2CCN(C)CC2)nc2ccc(NC(=O)c3ccc4c(c3)OCO4)cc12`: the AC50 under setting [1] is 18.4 µM [falling, partial curve].

On to `O=C(Nc1cc2ccc(O)cc2oc1=O)c1ccc(F)cc1`, for which, under setting [1], the AC50 is 0.631 µM [falling, full curve, poor fit].

`COc1ccc(C2CC(c3cccs3)=NN2c2nc(C)c(C(C)=O)s2)cc1OC` (stereo not drawn): under setting [2], the AC50 is 1.58 µM [falling, partial curve, poor fit].

Take `Cn1c(C(=O)N2CCCC(C(=O)NCc3cccs3)C2)cc2sccc21` (stereo not drawn): the AC50 under setting [1] is 0.103 µM [rising, full curve, poor fit].

In the case of `COc1cccc(Nc2sc(C(=O)c3ccc(F)cc3)c(N)c2C(=O)NCc2ccc(C)cc2)c1`, the half-maximal activity concentration (AC50) under setting [2] was 35.5 µM [falling, partial curve, poor fit].

With `C/C(=N/Nc1ncc(Br)cn1)c1ccc([N+](=O)[O-])cc1`, the AC50 under setting [1] was 1.12 µM [rising, full curve, poor fit].
